Data: article PMC8546420
Results are given in words; binding and its absence hold for the method and conditions named. In cells and extracts the contact can be indirect. Here binding means that the protein was enriched with, or labelled near, the bait; the list need not be complete. Tags and fused reporters may be left off the sequences shown.

Sequences of proteins named here, by UniProt entry; tags and fusion partners are left off.
UniProt Q99570: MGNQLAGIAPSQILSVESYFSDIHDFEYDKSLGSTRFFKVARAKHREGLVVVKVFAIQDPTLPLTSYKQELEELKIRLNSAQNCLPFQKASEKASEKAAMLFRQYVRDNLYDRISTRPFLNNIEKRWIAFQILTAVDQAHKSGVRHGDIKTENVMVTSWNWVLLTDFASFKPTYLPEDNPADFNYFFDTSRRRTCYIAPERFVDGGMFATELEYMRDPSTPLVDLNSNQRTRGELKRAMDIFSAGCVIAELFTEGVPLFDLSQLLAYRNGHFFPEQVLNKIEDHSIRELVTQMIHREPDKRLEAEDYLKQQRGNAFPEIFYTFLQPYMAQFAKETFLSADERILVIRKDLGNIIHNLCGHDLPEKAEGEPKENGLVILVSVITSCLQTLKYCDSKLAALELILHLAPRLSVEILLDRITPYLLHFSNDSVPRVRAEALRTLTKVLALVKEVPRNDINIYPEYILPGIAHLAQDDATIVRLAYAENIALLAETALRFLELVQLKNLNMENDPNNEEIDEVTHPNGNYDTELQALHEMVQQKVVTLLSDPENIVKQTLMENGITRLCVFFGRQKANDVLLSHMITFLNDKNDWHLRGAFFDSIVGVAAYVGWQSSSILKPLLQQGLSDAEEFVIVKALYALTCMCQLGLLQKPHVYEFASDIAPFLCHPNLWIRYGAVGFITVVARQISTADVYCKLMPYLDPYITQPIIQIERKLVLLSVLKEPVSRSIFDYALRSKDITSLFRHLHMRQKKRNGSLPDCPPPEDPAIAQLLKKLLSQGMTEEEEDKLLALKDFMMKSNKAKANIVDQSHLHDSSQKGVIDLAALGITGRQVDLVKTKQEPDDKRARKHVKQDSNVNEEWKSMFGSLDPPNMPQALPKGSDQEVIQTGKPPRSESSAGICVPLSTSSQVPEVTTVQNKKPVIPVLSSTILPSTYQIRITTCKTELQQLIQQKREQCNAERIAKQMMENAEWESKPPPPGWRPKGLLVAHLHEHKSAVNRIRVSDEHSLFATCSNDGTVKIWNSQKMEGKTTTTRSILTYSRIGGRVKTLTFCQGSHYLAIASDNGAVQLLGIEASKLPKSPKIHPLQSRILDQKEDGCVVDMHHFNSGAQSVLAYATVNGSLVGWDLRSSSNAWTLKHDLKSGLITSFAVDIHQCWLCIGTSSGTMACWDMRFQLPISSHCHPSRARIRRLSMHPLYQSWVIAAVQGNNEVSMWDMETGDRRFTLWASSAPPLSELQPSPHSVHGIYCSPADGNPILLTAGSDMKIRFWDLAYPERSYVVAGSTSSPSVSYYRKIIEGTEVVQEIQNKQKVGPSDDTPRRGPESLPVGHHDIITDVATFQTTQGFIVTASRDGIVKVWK
UniProt O75592: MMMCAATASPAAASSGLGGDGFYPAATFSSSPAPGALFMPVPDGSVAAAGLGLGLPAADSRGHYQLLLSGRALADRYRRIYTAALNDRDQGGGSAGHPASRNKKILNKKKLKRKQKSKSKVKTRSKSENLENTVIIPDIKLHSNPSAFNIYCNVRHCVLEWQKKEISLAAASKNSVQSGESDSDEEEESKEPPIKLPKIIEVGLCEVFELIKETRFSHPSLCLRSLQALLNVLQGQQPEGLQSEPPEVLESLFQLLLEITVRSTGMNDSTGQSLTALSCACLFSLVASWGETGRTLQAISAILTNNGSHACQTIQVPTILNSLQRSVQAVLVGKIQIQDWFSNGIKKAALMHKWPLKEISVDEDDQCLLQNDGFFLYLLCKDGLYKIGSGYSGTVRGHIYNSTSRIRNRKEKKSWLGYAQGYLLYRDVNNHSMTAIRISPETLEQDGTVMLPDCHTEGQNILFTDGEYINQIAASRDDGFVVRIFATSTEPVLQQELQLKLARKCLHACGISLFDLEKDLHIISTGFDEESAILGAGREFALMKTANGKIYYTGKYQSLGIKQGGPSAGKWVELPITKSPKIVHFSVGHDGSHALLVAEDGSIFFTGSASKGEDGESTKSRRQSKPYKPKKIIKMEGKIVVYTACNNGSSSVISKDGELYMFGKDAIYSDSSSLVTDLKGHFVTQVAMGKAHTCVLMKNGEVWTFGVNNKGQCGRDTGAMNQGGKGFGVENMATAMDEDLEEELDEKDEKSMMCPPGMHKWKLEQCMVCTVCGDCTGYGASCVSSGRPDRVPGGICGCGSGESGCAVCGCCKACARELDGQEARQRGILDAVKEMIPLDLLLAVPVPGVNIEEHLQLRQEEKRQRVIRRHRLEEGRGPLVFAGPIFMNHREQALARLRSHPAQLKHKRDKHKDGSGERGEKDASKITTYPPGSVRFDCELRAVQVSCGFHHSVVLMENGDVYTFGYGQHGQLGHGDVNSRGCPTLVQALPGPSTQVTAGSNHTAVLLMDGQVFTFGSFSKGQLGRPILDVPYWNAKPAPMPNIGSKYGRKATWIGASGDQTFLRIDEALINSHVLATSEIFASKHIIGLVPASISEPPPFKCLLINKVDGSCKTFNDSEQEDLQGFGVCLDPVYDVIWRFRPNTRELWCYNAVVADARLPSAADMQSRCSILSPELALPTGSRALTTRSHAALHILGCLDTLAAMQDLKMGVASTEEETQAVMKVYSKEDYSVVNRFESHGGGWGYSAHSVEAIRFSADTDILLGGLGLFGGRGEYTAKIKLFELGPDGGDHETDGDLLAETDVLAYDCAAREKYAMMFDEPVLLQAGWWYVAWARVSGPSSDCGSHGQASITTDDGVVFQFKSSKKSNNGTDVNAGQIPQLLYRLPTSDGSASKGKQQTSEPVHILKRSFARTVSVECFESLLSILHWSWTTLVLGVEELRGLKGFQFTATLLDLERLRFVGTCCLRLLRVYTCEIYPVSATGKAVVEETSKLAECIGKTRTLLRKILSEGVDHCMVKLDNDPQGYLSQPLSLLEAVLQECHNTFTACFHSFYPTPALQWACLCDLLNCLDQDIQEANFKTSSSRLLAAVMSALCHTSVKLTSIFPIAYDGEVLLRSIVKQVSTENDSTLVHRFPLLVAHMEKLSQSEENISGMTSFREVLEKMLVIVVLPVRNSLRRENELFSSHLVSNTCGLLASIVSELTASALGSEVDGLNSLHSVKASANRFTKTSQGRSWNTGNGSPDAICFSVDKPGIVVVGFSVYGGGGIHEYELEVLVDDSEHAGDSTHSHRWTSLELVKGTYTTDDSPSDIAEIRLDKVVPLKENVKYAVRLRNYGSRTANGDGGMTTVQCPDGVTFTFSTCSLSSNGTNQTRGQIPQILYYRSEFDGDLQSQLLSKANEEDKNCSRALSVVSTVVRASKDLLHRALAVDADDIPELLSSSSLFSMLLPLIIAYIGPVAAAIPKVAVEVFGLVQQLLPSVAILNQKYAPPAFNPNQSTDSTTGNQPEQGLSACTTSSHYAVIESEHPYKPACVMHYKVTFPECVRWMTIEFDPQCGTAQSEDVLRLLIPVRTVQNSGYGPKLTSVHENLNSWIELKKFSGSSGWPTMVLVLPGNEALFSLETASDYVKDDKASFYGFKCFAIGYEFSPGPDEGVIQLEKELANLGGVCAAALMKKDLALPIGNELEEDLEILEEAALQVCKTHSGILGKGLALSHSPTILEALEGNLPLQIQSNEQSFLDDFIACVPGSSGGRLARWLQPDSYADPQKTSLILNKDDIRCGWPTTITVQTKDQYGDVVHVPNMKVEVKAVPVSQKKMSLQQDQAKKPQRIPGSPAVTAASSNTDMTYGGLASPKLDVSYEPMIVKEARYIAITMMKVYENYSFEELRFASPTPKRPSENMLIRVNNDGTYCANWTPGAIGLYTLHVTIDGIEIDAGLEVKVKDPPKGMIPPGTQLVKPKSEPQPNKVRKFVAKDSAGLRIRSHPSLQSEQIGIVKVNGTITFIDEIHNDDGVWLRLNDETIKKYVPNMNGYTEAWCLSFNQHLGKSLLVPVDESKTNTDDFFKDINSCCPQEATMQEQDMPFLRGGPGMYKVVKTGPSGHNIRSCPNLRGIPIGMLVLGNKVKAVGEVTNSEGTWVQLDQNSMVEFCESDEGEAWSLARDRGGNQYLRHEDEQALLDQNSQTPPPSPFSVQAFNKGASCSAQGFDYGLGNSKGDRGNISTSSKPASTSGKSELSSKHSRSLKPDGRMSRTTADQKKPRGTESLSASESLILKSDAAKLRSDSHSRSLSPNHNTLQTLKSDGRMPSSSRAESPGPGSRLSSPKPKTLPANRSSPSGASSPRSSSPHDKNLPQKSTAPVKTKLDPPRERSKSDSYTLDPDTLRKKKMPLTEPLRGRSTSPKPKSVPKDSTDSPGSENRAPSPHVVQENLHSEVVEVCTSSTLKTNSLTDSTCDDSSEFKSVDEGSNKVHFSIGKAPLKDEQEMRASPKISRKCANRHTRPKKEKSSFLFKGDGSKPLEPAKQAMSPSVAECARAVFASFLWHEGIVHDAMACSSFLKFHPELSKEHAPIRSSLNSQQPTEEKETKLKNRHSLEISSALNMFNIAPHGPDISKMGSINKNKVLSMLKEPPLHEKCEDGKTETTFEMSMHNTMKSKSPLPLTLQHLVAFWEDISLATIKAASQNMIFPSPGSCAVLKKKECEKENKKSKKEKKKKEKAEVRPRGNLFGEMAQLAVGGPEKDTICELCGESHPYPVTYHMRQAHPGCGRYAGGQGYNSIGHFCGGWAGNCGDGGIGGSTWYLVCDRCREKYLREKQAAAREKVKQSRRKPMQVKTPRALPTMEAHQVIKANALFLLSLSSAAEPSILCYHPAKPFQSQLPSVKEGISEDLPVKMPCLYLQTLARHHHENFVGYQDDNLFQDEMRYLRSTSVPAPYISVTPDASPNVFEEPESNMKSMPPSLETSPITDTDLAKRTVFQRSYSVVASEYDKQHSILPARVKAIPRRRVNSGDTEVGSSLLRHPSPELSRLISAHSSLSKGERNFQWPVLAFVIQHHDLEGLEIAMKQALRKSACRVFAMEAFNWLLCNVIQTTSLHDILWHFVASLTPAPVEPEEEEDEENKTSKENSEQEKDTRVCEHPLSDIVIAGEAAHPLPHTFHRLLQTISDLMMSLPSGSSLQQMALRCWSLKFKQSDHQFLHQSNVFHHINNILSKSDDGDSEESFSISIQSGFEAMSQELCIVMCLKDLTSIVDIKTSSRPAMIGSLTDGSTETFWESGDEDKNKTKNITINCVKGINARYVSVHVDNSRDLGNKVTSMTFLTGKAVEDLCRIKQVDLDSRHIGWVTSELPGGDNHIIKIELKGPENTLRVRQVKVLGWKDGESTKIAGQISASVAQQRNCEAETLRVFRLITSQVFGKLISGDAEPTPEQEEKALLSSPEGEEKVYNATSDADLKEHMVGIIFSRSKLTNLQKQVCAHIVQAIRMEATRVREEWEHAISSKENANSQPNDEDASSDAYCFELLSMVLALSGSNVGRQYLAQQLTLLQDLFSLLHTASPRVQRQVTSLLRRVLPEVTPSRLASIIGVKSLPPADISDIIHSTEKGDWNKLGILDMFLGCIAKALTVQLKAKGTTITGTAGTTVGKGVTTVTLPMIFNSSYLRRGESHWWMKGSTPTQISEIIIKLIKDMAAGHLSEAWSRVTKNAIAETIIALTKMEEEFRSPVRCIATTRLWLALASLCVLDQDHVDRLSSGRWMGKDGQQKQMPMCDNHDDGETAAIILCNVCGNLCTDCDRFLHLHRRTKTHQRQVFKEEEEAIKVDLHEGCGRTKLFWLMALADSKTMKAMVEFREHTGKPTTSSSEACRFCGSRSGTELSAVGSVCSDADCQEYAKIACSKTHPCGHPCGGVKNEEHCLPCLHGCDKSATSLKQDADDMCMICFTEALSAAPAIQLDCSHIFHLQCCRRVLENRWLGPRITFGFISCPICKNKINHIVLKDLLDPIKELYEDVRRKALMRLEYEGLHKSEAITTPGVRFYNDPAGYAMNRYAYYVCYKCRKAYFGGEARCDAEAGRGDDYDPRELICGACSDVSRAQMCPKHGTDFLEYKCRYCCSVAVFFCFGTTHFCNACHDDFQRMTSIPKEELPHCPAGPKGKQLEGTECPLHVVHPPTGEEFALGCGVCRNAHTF
UniProt Q15170: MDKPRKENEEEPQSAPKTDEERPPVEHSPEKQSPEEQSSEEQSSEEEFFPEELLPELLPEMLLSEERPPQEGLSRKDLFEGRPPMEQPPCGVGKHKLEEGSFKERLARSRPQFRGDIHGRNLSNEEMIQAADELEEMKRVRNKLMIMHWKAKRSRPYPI

B1: ZNF598 (protein, UniProt Q86UK7 1-904)
chain: MAAAGGAEGRRAALEAAAAAAPERGGGSCVLCCGDLEATALGRCDHPVCYRCSTKMRVLCEQRYCAVCREELRQVVFGKKLPAFATIPIHQLQHEKKYDIYFADGKVYALYRQLLQHECPRCPELPPFSLFGDLEQHMRRQHELFCCRLCLQHLQIFTYERKWYSRKDLARHRMQGDPDDTSHRGHPLCKFCDERYLDNDELLKHLRRDHYFCHFCDSDGAQDYYSDYAYLREHFREKHFLCEEGRCSTEQFTHAFRTEIDLKAHRTACHSRSRAEARQNRHIDLQFSYAPRHSRRNEGVVGGEDYEEVDRYSRQGRVARAGTRGAQQSRRGSWRYKREEEDREVAAAVRASVAAQQQEEARRSEDQEEGGRPKKEEAAARGPEDPRGPRRSPRTQGEGPGPKETSTNGPVSQEAFSVTGPAAPGCVGVPGALPPPSPKLKDEDFPSLSASTSSSCSTAATPGPVGLALPYAIPARGRSAFQEEDFPALVSSVPKPGTAPTSLVSAWNSSSSSKKVAQPPLSAQATGSGQPTRKAGKGSRGGRKGGPPFTQEEEEDGGPALQELLSTRPTGSVSSTLGLASIQPSKVGKKKKVGSEKPGTTLPQPPPATCPPGALQAPEAPASRAEGPVAVVVNGHTEGPAPARSAPKEPPGLPRPLGSFPCPTPQEDFPALGGPCPPRMPPPPGFSAVVLLKGTPPPPPPGLVPPISKPPPGFSGLLPSPHPACVPSPATTTTTKAPRLLPAPRAYLVPENFRERNLQLIQSIRDFLQSDEARFSEFKSHSGEFRQGLISAAQYYKSCRDLLGENFQKVFNELLVLLPDTAKQQELLSAHTDFCNREKPLSTKSKKNKKSAWQATTQQAGLDCRVCPTCQQVLAHGDASSHQALHAARDDDFPSLQAIARIIT

What follows are molecules tested against T1, USP11(C318S)-GFP (catalytically inactive USP11, GFP-tagged) (human) (UniProt P51784) (assay: affinity purification with mass spectrometry; GFP-Trap IP of USP11(C318S)-GFP from 293 cells treated with Torin 1 for 4 h, compared with GFP alone; label-free quantification, three biological replicates).
T1 sequence: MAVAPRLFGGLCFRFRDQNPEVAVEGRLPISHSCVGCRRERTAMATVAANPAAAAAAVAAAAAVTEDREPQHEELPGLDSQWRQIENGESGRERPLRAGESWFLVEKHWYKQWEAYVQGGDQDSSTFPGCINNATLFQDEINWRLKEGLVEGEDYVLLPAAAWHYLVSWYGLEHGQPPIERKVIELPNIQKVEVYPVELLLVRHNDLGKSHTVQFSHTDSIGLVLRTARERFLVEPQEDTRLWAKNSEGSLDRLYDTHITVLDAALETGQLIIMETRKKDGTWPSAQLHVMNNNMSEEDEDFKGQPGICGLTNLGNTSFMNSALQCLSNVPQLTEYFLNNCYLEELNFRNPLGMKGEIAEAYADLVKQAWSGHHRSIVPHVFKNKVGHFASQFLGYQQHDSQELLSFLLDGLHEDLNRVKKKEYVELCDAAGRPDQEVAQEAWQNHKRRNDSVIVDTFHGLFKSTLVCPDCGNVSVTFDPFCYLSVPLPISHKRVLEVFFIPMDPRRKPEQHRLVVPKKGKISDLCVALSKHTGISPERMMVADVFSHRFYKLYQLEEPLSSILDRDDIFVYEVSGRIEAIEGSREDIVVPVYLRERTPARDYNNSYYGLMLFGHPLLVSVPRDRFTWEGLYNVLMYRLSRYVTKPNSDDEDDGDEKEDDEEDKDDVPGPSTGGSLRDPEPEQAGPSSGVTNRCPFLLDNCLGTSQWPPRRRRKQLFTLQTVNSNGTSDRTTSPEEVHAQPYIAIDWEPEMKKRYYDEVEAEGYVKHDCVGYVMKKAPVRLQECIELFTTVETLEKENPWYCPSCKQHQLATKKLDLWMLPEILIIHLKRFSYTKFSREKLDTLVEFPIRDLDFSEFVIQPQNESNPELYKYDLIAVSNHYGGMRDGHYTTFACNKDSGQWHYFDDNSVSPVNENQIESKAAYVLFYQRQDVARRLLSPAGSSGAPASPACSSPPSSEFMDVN
With “USP7 (from UniProt Q93009 1-1102) (enzyme)” the binding was “binds”. For “VPS15 (PIK3R4), endogenous, interactome hit (from UniProt Q99570 1-1358)”, the binding was “binds”. For BIRC6 (from UniProt Q9NR09 1-4857), the binding was “binds”. With MYCBP2 (from UniProt O75592 1-4678) the binding was “binds”. In the case of TCEAL1 (from UniProt Q15170 1-159), the binding is reported as “binds”.

Biological target: T1, USP11(C318S)-GFP (catalytically inactive USP11, GFP-tagged) (human)
Assay: as above
Remark: another data set of the same source
With B1 the binding was “binds”.
